Values of other authors as cited in patent US10179139B2, “Pharmaceutical composition” (CIPLA Limited, priority 2010, dated 2019).
Structures can show the parent of a compound that is named as a salt.

Settings: in vivo

Question: For COc1ccc(CC(C)NCC(O)c2ccc(O)c(NC=O)c2)cc1 (racemic) [Formoterol, (±)-2-hydroxy-5-[(1RS)-1-hydroxy-2-[[(1RS)-2-(4-methoxyphenyl)-1methylethyl]-amino]ethyl]formanilide fumarate dihydrate], which onset of action is on record?
Answer: 1 to 3 min
